Paper PMC10163288
The list shows a part of the results.

B1: il2ra_site2_3nfp_normal_mot_HHH_b1_00660_af2_000000090_0001_40_57_H_._HHH_b2_01268_0001_0000100006_0000001_0_af2pred_0001_1_af2pred_swapped (protein)
chain: SSSSSDEEEEEVEELLEEAKRIPDPEERERVLLRASTLAAEARDHELVALVLEVLEKLSSSSSSS
B2: il2ra_site2_3nfp_normal_mot_HHH_b1_00660_af2_000000090_0001_40_57_H_._HHH_b2_04195_0001_0000100015_0000001_0_af2pred_0001_af2pred (protein)
chain: SSSSSEEEEVRELLEQAKELLERGNPEEAEEILLRAAELAAKAQNFELFAIINLLLEKVDQSSSS
B3: il2ra_site2_3nfp_normal_mot_HHH_b1_06577_af2_000000152_0001_20_36_H_._HHH_b2_02897_af2_0001_0000500077_0000001_0 (protein)
chain: SSSSSEEEERVRELIEQAEELIKEGNPEEARKVLQEAALLAAELRDHELFALIQELIALLASSSS
B4: il2ra_site2_3nfp_sap_18_mot_HHH_b1_06589_000000230_0001_37_50_H_._5dfb590427825a07fdab5d2993dea047_0001_0001_0000100009_0000001_0_0001_af2pred_0001_af2pred (protein)
chain: SSSSSSDIEELKELLEELLKRGDEEELHHAVSEALALALDEGDEELEEIAREASDELNSSSSSSS
B5: il2ra_site1_1z92_normal_mot_9c3e5e2d2b9ffb70dc788f52fbfab6d5_0001_1_af2_000000067_0001_53_65_H_._6228ca5b8b091676f337a4c0a06dbe92_0001_0001_0000200024_0000001_0 … (protein)
chain: DKYLIEYLLKLIEKGDEELARKLIEKMLKASGIPPEEVEEIVEELLKLLKDGDPEKARELLRRAP
B6: il2ra_site2_3nfp_normal_mot_HHH_b1_05835_af2_000000128_0001_43_56_H_._a171aa182591c97700389b7a6f87ba9a_0001_af2_0001_0000200038_0000001_0 (protein)
chain: DEEEQLKELIKEGDPHAIFALAAILLFRLGNPEEANEELIEILKELLNVPPEEAREILEEVKEKG
B7: il2ra_site2_2erj_normal_mot_6ec3e94b46d95805cdcdc10c0c108f03_0001_af2_000000040_0001_36_50_H_._HHH_b2_01340_0001_0000400057_0000001_0 (protein)
chain: SSSSSLEELYELANLVMHLEYNGNPEEAEKVLEELRRLAEELGSEAARKVAEELQEHIEGSSSSS
B8: il2ra_site1_1z92_normal_mot_HHH_b2_03302_000000138_0001_21_37_H_._HHH_b1_05567_0001_0000100001_0000001_0 (protein)
chain: SSSSSDAEEALRELLEALERLLRRAGNPKTARQIEFILEALRLLGNEELVEKAEEILEELSSSSS
B9: il2ra_site1_1z92_normal_mot_HHH_b2_07217_af2_000000241_0001_1_19_H_._HHH_b1_01429_0001_0000200039_0000001_0 (protein)
chain: SSSSNVEEYHEELARALYKLIKLTGNPRSREQLEMFLHQARLLGDEELQRLIEELLEELRSSSSS
B10: il2ra_site1_1z92_sap_18_mot_HHH_b2_05038_af2_000000006_0001_39_52_H_._HHH_b2_05414_0001_0000600037_0000001_0_0001 (protein)
chain: DDRFLAEQVIRKIKRGNEEAVEKLVERFSRASGVPPEEVLKILLRLLRELGDPEAVEFIEELLRR
B11: il2ra_site2_3nfp_sap_19_mot_HHH_b1_00015_000000185_0001_19_35_H_._HHH_b2_06881_0001_0000400041_0000001_0_0001 (protein)
chain: SSSSSKEERLEELLEKARELLERGNPEEARRVLSELAQLAMELGDIEIFAELAKLFQEELSSSSS
B12: il2ra_site2_2erj_sap_22_mot_HHH_b1_00004_af2_000000098_0001_20_37_H_._HHH_b2_02853_0001_0000500009_0000001_0_0001 (protein)
chain: SSSSDKLHRLYELAVLLMHLVARNDREEFEKVVEEAEELAEELKSDSAKEAIEALERKLGSSSSS
B13: il2ra_site2_3nfp_normal_mot_HHH_b2_02437_000000052_0001_42_56_H_._HHH_b2_03460_af2_0001_0000400013_0000001_0 (protein)
chain: SSSSDVEERVEELLEQAERLFKEGDEEEAERFLAEAVQLAFENRDTELFVLVAEVLYRLASSSSS
B14: il2ra_site1_2b5i_sap_19_mot_HHH_b1_08546_af2_000000241_0001_22_37_H_._HHH_b1_05409_0001_0000300014_0000001_0_0001 (protein)
chain: SSSSDEEEAEELFHEASRAWKNGNPEEAEELLEKALELAERENDETAERDIRFMLEHVRQSSSSS
B15: il2ra_site2_2erj_normal_mot_90f6a21de4ed711cb697bb9f61d9c40c_0001_af2_000000135_0001_36_50_H_._HHH_b2_04566_af2_0001_0000800023_0000001_0_af2pred_0001_af2pred (protein)
chain: SSSDEEELQEELERLVEELVKELGLSQRLERFLRLQVELLIEQGASREEAERFIKASAKLLSSSS
B16: il2ra_site1_2b5i_normal_mot_HHH_b1_03543_af2_000000000_0001_42_54_H_._HHH_b1_06556_af2_0001_0000200023_0000001_0 (protein)
chain: SSSSDDRVDELFRKASRLYQNGNPEEAKEVVEKALELAEELGDEKLREELEFMLERIERARSSSS
B17: il2ra_site1_2b5i_sap_10_mot_HHH_b1_01192_000000046_0001_1_19_H_._520760a1b3033c0d7e8c6ec61dbb0d93_0001_1_0001_0000200013_0000001_0_0001 (protein)
chain: SSSSSTQRAFEASLRLLESALEQIDDEEVRERVEQLLEEAREKNDKRLLREAMRLAQEYLSSSSS
B18: il2ra_site1_2b5i_sap_15_mot_8958d2aaae642190dac4a9460e01c591_0001_af2_000000060_0001_1_13_H_._HHH_b2_06679_af2_0001_0000300018_0000001_0_0001 (protein)
chain: SSSSNEEARELQELFHRADELDKQGNEEEARKVLEEAEELAEEANSRAILLFVRWALEQFSSSSS
B19: il2ra_site1_3nfp_sap_15_mot_HHH_b1_01417_af2_000000204_0001_1_19_H_._9dba988b99a1581a42d8501449c0ed8b_0001_0001_0000500055_0000001_0_0001_af2pred_0001_af2pred (protein)
chain: SSSSSKLERLSKLARELYEARKNGDKEEARELAEELLELAEELNDRIARLLAERFERLLSSSSSS
B20: il2ra_site2_3nfp_normal_mot_HHH_b1_05437_000000005_0001_40_57_H_._HHH_b1_02636_af2_0001_0000500018_0000001_0 (protein)
chain: SSSSDEAEERVKELLERAEEARKRGDPFKAFALLAEALFIAWQLGDEELIQEVSEVTEHLRSSSS
B21: il2ra_site2_3nfp_normal_mot_HHH_b1_06613_af2_000000098_0001_23_40_H_._72a79b14e1a0e827e78e129a6f5f8f0c_0001_1_0001_0000300023_0000001_0 (protein)
chain: DRELSQRIFELAERGDPVAHSLFALLADVRYKGDPELRELLEEALEALERGNPEEAKEIVHKALR
B22: il2ra_site2_2erj_normal_mot_HHH_b2_01353_af2_000000049_0001_23_39_H_._HHH_b2_08022_af2_0001_0000200007_0000001_0 (protein)
chain: SSSDEEEKVERLIEEAEELLKEGNPEEALRVLRRAAELAFRLNNEELFSAIAELTEEIARRSSSS
B23: il2ra_site2_3nfp_normal_mot_HHH_b2_05281_000000198_0001_39_56_H_._HHH_b1_08050_af2_0001_0000300011_0000001_0 (protein)
chain: SSSSSEELEELLRELEELLKKGDEEEFRRLLAEIVHLAFKLRDPRIFYLVAELAFEFHQRESSSS
B24: il2ra_site1_2b5i_sap_10_mot_HHH_b1_08745_af2_000000166_0001_39_57_H_._67a4efabeed6c13c80d2eeecdf405411_0001_0001_0000200015_0000001_0_0001_af2pred_dldesign_0_af … (protein)
chain: SSSSSDPEEVRRRVEELIERARELADPAEAARVLFEALYVARAGRDEELIAEVEAVYKELSSSSS

biological target: il2ra, P01589; assay: yeast display titration

Apparent Kd, inactive:
B1 no binding seen
B2 no binding seen
B3 no binding seen
B4 no binding seen
B5 no binding seen
B6 no binding seen
B7 no binding seen
B8 no binding seen
B9 no binding seen
B10 no binding seen
B11 no binding seen
B12 no binding seen
B13 no binding seen
B14 no binding seen
B15 no binding seen
B16 no binding seen
B17 no binding seen
B18 no binding seen
B19 no binding seen
B20 no binding seen
B21 no binding seen
B22 no binding seen
B23 > 589 nM
B24 no binding seen

As a short view, some entries already given:
Apparent Kd, inactive:
B6 no binding seen
B7 no binding seen
